Test results: article PMC12827083
No constants are given. Whether binding was seen depends on the method and setting. Binding seen in cells or lysates may run through a third protein. Some binding calls cover weakened binding; strength is not graded here. For some assays here: Tags and fused reporters may be left off the sequences shown. Values belong to the binder of their own block, whether it stands above or below them.

Assays:
[1] = target: T1, Flag-TRADD (tumor necrosis factor receptor 1-associated death domain protein) (human) (UniProt Q15628); test: co-IP; HEK293T cells transfected with Myc-PELI3 or Flag-TRADD plasmids for 48 hours; lysed in IP Lysis buffer; precipitated with anti-Myc or anti-Flag antibody (2 ug, overnight, 4 °C) and Protein A/G Plus Agarose; immunoblot
T1 sequence: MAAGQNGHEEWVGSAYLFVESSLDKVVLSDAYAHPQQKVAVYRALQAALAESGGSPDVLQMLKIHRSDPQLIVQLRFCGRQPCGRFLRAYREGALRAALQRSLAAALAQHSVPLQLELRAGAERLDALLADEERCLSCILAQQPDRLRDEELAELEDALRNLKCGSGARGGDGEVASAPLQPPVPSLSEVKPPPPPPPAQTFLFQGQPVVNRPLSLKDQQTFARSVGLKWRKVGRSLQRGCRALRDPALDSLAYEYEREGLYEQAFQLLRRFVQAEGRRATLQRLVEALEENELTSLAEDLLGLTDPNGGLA

[2] = target: T2, TRADD, endogenous in A549 cells (human (endogenous in A549)) (UniProt Q15628); test: co-IP; A549 cells lysed; endogenous proteins precipitated with an anti-TRADD or anti-PELI3 antibody; immunoblot
T2 sequence: T1 sequence

B1: Myc-PELI3 (Pellino E3 ubiquitin protein ligase family member 3) (enzyme, UniProt Q8N2H9 1-469)
chain: MVLEGNPEVGSPRTSDLQHRGNKGSCVLSSPGEDAQPGEEPIKYGELIVLGCCEEGGEETEAQRGEVTGPRAHSCYNGCLASGDKGRRRSRLALSRRSHANGVKPDVMHHISTPLVSKALSNRGQHSISYTLSRSHSVIVEYTHDSDTDMFQIGRSTENMIDFVVTDTSPGGGAAEGPSAQSTISRYACRILCDRRPPYTARIYAAGFDASSNIFLGERAAKWRTPDGLMDGLTTNGVLVMHPAGGFSEDSAPGVWREISVCGNVYTLRDSRSAQQRGKLVENESNVLQDGSLIDLCGATLLWRTPAGLLRAPTLKQLEAQRQEANAARPQCPVGLSTLAFPSPARGRTAPDKQQPWVYVRCGHVHGYHGWGCRRERGPQERECPLCRLVGPYVPLWLGQEAGLCLDPGPPSHAFAPCGHVCSEKTARYWAQTPLPHGTHAFHAACPFCGAWLTGEHGCVRLIFQGPLD
binding [1]: binds

binding [2]: binds
B2: PELI3, endogenous in A549 cells (enzyme, UniProt Q8N2H9 1-469)
chain: B1 chain
